According to PMC11853149:
No constants are given. Whether binding was seen depends on the method and setting. Binding seen in cells or lysates may run through a third protein. Some results given as binding are weak or reduced against the parent protein; the word gives no strength.

By UniProt entry, the sequences of proteins in these tests, tags left out.
UniProt P51858: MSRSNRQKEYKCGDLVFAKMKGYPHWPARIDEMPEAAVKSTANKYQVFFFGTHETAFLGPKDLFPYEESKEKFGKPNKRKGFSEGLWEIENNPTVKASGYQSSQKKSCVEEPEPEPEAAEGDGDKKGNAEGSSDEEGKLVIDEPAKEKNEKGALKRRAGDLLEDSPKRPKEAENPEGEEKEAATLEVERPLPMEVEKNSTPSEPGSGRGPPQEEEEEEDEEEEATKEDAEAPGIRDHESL
UniProt P78527: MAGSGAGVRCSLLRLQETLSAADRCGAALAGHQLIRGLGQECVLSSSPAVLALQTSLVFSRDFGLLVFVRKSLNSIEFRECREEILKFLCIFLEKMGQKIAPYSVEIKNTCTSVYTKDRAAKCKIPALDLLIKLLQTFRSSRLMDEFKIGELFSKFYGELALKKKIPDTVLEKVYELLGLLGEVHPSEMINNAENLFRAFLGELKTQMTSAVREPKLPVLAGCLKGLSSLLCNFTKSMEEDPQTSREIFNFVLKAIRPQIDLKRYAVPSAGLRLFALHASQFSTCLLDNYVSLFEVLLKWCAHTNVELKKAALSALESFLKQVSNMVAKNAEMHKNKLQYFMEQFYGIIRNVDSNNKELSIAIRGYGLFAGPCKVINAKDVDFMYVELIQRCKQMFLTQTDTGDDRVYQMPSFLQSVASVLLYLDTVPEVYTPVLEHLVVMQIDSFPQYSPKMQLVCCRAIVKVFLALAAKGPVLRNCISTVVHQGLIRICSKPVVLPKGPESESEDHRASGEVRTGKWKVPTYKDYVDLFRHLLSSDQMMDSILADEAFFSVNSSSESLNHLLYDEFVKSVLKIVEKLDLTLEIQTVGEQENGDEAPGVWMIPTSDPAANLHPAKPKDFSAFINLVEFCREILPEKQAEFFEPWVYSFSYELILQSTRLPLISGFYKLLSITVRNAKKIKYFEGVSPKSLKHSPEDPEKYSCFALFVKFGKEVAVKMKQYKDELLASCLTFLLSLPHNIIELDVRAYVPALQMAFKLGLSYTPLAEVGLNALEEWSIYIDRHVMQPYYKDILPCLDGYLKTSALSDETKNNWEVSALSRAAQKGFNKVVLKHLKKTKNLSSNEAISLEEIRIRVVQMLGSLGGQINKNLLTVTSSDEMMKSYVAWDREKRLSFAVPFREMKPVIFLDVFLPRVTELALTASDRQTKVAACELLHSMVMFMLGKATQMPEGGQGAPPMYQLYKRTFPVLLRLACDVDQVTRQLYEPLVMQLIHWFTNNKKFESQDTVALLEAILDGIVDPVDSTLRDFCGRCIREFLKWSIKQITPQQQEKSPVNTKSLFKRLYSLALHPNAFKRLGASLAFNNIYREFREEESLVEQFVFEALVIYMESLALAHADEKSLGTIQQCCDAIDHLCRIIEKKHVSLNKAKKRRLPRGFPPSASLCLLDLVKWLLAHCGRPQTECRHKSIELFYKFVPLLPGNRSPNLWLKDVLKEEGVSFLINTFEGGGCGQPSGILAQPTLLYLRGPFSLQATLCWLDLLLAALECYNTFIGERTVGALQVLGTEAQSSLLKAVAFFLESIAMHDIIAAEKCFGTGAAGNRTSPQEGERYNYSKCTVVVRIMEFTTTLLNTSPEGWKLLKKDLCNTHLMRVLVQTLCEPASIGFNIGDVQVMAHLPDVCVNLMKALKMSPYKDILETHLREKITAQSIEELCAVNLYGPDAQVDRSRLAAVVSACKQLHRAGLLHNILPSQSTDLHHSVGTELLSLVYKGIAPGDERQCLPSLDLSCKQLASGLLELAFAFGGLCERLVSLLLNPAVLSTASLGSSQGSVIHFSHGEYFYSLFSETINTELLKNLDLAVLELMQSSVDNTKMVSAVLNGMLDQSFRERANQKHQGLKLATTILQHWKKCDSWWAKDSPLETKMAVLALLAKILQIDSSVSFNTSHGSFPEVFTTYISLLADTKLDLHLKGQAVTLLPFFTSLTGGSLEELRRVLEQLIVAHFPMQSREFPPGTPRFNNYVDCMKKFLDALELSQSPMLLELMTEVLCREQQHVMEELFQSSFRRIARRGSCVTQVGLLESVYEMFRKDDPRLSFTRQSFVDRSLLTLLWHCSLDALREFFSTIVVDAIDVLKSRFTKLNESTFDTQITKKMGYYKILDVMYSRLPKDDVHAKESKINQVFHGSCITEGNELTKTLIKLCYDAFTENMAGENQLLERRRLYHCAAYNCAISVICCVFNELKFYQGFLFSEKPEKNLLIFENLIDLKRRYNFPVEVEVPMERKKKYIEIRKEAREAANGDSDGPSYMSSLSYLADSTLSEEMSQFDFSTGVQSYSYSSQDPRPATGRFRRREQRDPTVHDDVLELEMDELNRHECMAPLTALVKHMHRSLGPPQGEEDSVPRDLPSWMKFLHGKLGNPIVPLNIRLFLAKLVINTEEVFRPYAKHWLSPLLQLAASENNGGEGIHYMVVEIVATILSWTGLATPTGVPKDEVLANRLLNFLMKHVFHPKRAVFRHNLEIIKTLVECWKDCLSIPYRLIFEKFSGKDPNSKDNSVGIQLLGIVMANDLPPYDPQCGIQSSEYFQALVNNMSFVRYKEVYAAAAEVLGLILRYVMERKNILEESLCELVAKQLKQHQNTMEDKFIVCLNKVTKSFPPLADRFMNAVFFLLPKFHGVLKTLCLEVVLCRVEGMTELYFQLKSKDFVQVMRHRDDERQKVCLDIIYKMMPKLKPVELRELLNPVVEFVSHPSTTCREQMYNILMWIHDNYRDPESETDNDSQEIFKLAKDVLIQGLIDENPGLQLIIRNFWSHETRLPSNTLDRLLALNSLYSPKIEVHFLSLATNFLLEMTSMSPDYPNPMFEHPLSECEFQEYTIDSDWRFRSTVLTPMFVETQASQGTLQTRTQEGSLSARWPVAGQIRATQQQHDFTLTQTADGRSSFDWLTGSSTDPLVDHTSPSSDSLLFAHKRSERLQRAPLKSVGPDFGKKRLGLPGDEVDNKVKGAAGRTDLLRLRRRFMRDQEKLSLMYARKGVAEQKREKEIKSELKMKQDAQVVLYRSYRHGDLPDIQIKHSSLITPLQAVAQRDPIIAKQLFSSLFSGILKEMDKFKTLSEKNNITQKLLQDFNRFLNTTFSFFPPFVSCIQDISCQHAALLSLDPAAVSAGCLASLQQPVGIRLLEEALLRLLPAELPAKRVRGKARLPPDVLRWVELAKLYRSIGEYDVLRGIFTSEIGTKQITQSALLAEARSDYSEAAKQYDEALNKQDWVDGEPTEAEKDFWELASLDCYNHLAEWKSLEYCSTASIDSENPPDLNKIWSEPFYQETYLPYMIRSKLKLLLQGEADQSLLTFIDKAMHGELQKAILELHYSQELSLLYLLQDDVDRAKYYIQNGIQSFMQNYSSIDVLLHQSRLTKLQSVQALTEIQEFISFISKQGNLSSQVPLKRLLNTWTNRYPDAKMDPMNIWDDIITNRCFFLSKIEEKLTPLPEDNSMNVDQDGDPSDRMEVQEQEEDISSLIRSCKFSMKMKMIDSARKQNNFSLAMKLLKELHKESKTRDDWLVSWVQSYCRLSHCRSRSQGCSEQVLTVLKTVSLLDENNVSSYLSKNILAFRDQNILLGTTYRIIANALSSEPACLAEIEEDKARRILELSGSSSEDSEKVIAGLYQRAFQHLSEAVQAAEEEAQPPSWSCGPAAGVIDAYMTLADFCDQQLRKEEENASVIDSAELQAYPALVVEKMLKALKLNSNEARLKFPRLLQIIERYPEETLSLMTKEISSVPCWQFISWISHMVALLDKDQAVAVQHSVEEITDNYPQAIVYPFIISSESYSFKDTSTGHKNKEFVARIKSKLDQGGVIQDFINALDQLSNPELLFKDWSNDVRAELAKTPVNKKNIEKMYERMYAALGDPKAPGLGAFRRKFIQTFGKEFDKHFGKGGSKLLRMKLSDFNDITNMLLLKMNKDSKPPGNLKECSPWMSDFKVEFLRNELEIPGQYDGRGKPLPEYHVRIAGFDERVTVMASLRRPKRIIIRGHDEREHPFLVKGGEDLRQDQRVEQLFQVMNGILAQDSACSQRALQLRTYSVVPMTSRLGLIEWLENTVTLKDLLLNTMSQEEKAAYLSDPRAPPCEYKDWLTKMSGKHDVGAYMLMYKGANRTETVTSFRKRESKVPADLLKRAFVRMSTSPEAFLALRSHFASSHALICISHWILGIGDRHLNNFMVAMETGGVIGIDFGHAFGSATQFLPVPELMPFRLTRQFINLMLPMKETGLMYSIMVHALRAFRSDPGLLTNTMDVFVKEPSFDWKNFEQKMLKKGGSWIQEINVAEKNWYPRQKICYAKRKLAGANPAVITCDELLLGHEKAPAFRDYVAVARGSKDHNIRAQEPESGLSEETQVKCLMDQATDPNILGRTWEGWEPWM
UniProt P12956: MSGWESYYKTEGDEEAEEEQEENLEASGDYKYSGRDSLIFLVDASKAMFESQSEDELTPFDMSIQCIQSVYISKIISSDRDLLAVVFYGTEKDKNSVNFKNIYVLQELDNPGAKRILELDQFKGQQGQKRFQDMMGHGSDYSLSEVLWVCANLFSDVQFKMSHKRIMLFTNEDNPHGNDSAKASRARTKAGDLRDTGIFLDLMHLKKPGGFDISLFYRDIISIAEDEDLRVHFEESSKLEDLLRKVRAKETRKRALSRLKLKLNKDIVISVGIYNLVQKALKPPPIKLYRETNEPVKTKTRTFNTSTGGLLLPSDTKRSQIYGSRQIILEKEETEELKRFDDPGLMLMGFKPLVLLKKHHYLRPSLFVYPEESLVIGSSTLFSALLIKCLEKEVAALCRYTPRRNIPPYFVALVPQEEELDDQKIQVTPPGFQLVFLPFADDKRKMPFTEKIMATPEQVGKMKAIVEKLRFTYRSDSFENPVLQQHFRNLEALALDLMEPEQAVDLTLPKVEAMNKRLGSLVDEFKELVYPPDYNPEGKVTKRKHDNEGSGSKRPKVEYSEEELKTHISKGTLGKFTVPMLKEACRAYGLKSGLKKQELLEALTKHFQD
UniProt P13010: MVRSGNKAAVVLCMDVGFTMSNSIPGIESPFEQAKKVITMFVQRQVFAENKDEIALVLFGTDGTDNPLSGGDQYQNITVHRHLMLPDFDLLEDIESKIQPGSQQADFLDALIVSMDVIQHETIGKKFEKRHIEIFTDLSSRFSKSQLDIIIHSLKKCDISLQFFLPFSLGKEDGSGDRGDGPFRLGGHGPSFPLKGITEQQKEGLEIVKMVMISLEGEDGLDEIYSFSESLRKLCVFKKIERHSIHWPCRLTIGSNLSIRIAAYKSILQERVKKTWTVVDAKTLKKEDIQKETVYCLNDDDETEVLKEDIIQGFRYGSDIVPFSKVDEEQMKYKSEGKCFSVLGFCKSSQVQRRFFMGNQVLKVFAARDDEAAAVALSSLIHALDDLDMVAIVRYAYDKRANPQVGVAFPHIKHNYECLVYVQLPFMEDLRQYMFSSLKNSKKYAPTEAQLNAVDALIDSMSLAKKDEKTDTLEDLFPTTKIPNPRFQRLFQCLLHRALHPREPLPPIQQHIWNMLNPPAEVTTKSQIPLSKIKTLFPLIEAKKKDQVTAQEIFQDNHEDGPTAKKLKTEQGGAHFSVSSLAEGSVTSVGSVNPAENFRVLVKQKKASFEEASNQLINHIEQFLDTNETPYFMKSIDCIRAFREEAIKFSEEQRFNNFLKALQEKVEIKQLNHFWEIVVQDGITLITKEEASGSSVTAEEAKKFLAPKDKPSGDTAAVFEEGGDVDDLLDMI
UniProt P15927: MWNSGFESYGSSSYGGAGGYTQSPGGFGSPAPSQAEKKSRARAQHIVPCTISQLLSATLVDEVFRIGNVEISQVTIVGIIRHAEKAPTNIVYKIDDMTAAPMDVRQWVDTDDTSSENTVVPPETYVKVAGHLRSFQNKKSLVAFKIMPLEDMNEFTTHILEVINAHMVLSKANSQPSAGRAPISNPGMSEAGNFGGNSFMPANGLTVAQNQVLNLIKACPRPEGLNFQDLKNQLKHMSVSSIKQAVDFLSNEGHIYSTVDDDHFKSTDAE

Target: Hepatoma-derived growth factor (HDGF) (human (endogenous in HT29 and HCT116)) (UniProt P51858)
Experiment: co-IP; endogenous proteins in HT29 WT cells lysed in Pierce IP lysis buffer; magnetic beads pre-incubated with anti-HDGF or IgG control antibody, incubated with lysate overnight at 4 °C; immunoblot

binding	Substance
no binding	DNA-PKcs (from UniProt P78527 1-4128)
binds	Ku70 (from UniProt P12956 1-609)
binds	Ku80 (from UniProt P13010 1-732)
binds	RPA2 (from UniProt P15927 1-270)
